Source: PubChem BioAssay AID445 (National Center for Advancing Translational Sciences (NCATS), 2006)
Some of the results follow. Shown are side measurements of this screen, not its main read-out; they come without a call. Compounds called inactive in the main read-out are mostly missing here. The note in brackets gives the kind of curve behind each potency; many fits are weak.

Assay: IkB Signaling
Details: ABC-DLBCL IkBa-CBG/CBR dual luciferase ratio (green luciferase fused to IkBa over red control in OCI-Ly3 lymphoma cells), 4 h; measured here: control luc red channel unless noted
Outline: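 Luminescence ratio of IκBα-fused green versus native red beetle luciferase in OCI-Ly3 cells, 4 h post-doxycycline with compound; red signal alone, scaled from basal (0%) to zero light (-100%), flagged nonspecific or cytotoxic effects.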
In the case of CN(C)c1ccc(CN(CC2CCCO2)C(=O)c2ccc(Br)cc2)cc1 (configuration not stated), the AC50 is reported as 39.8 µM [falling, single point]. With Cc1ccc(-n2c(=O)c3ccc(C(=O)NCc4ccccc4Cl)cc3n(CC(=O)Nc3cccc(F)c3)c2=O)cc1 the AC50 was 10 µM [falling, partial curve]. With Cc1cc(NC(=O)Cn2nc(C)n3cccc3c2=O)ccc1Br the AC50 was 7.94 µM [falling, partial curve, poor fit]. For CCOC(=O)c1c(C)[nH]c(C(=O)OC/C(O)=C(\C#N)c2nc3ccccc3[nH]2)c1C, the AC50 was 3.98 µM [falling, full curve]. For Cn1c(=O)n(-c2cccc(Cl)c2)c(=O)c2sc3ccccc3c21, the AC50 was 15.8 µM [rising, single point]. In the case of CCN(CC)CCCNC(=O)c1cc2c(-c3ccc(Cl)cc3)nn(C)c2s1, the AC50 is reported as 25.1 µM [rising, single point] [measured here: IkB-luc green channel]. For CCCCN1C(=O)CN(C2CCCCC2)C(=O)C1c1ccc(OC(C)C)c(OC)c1 (configuration not stated), the AC50 was 39.8 µM [falling, partial curve, poor fit]. With Cc1cccc(-n2ncc(C(=O)NCc3ccccn3)c2C2CCN(C(=O)OC(C)(C)C)CC2)c1 the AC50 was 15.8 µM [falling, partial curve]. With c1ccc2sc(-c3ccc4c(c3)OCO4)nc2c1 the AC50 was 15.8 µM [falling, partial curve]. In the case of CCOc1ccc(Br)cc1CNCCSc1nnnn1-c1ccccc1, the AC50 is reported as 31.6 µM [falling, single point]. In the case of CC(C)(C)OC(=O)N1CCC(c2c(C(=O)Nc3ccc4c(c3)OCCO4)cnn2-c2ccccc2)CC1, the AC50 is reported as 31.6 µM [falling, partial curve]. In the case of COc1ccc(CNC(=O)c2cc3c(s2)-c2c(C)cccc2OC3)cc1, the AC50 is reported as 7.94 µM [falling, partial curve]. In the case of Cc1ccc(C)c(NC(=O)C(=O)NCCc2csc3nc(-c4ccccc4C)nn23)c1, the AC50 is reported as 7.94 µM [falling, partial curve]. For COc1cccc(CNC(=O)CN2C(=O)COc3ccc(S(=O)(=O)Nc4ccccc4)cc32)c1, the AC50 was 25.1 µM [falling, single point]. For COc1ccc(CNC(=O)C2CCN(C(=O)N3CC(C)Oc4ccc(C)cc43)CC2)cc1 (configuration not stated), the AC50 was 12.6 µM [falling, partial curve]. In the case of O=C(Nc1ccc(Cl)cc1)c1cc(S(=O)(=O)N2CCc3ccccc32)ccc1F, the AC50 is reported as 3.98 µM [falling, full curve]. In the case of CCOc1ccc(C(=O)Nc2cc(-c3cn4cccnc4n3)ccc2C)cc1OCC, the AC50 is reported as 3.16 µM [rising, partial curve]. In the case of Cc1cc(C)cc(NC(=O)C2CCC(CNS(=O)(=O)c3ccc4c(c3)C(C)(C)C(=O)N4C)CC2)c1 (configuration not stated), the AC50 is reported as 25.1 µM [falling, partial curve]. With CCOC(=O)C1CCCN(Cc2nc(N)nc(Nc3ccc(OC)cc3)n2)C1 (configuration not stated) the AC50 was 12.6 µM [falling, partial curve]. With COc1ccc(C)cc1NC(=O)CSc1ccc(-c2ccccn2)nn1 the AC50 was 15.8 µM [falling, single point]. In the case of COc1ccccc1C(=O)Nc1c(C(=O)N(C)c2ccccc2)sc2nc(C)cc(C)c12, the AC50 is reported as 25.1 µM [falling, single point]. With Cc1nn2c(=O)cc(COC(=O)c3cccc(NC(=O)c4ccc(C(C)(C)C)cc4)c3)nc2s1 the AC50 was 3.16 µM [falling, full curve]. For Cc1ccc2[nH]c(=O)c3cc(C(=O)N(C)Cc4ccco4)sc3c2c1, the AC50 was 39.8 µM [falling, single point]. For O=C(COC(=O)c1cccc(NC(=O)c2ccc(Br)cc2)c1)c1ccc(Br)cc1, the AC50 was 10 µM [falling, partial curve]. With COc1cccc(C(=O)Nc2ccc3nc(N4CCC(C)CC4)cc(C)c3c2)c1 the AC50 was 7.94 µM [falling, partial curve]. In the case of COc1ccc(C(=O)CCC(=O)Nc2ccc(OC)c(Cl)c2)cc1, the AC50 is reported as 3.98 µM [rising, full curve]. With CCOC(=O)c1[nH]c2c(c1Cc1ccccc1OC)C(=O)CC(c1ccc(OCC)cc1)C2 (configuration not stated) the AC50 was 10 µM [falling, partial curve]. In the case of CCOC(=O)c1c(C)oc2nc(C)nc(NCCc3ccc(SC)cc3)c12, the AC50 is reported as 20 µM [falling, partial curve, poor fit]. With CC(C)NC(=O)c1ccccc1NC(=O)c1nsc2ccccc12 the AC50 was 2.51 µM [rising, full curve]. For CCN(CC)S(=O)(=O)c1ccc2c(c1)N(CC(=O)Nc1ccc(C)cc1C)C(=O)C1CCCN21 (configuration not stated), the AC50 was 0.0398 µM [rising, full curve]. In the case of O=C(NC(Cc1ccccc1)C(=O)OCC(=O)N1CCc2ccccc21)c1ccco1 (configuration not stated), the AC50 is reported as 12.6 µM [falling, partial curve]. For O=C(Cc1ccc(Cl)cc1)NCC(c1cccs1)S(=O)(=O)c1ccc(F)cc1 (configuration not stated), the AC50 was 10 µM [falling, partial curve]. In the case of Cc1cccc(N2CCN(CCCNC(=O)c3nnc(Cc4c(F)cccc4Cl)o3)CC2C)c1 (configuration not stated), the AC50 is reported as 25.1 µM [falling, single point]. For COc1ccc(Cl)c(NC(=O)Cn2nnc(-c3ccccc3N)n2)c1, the AC50 was 10 µM [falling, partial curve]. For O=C(NCCc1ccccc1)c1ccc2c(c1)N(Cc1ccccc1)C(=O)c1ccccc1S2(=O)=O, the AC50 was 15.8 µM [rising, partial curve]. With COc1cccc(OCc2nc3ccccc3[nH]2)c1 the AC50 was 7.94 µM [falling, partial curve]. With O=C(OCC(=O)N1CCN(C(=O)c2ccco2)CC1)c1ccccc1OCc1ccc(Cl)cc1 the AC50 was 20 µM [falling, partial curve]. In the case of O=C(NCCc1ccccc1)C1CCN(Cc2cc3ccccc3n2Cc2cccc(Cl)c2)CC1, the AC50 is reported as 10 µM [falling, partial curve]. In the case of COc1ccc(CNC(=O)c2cc(=O)[nH]c3ccc(S(=O)(=O)N4CCCC4)cc23)c(OC)c1, the AC50 is reported as 1.26 µM [falling, full curve, poor fit]. For COc1ccc(Cl)cc1NC(=O)c1ccc2c(c1)CCN2S(C)(=O)=O, the AC50 was 39.8 µM [falling, single point]. With COc1cccc(Nc2sc(C(=O)c3ccc(Cl)cc3)c(N)c2C(=O)NCc2ccc(C)cc2)c1 the AC50 was 15.8 µM [falling, partial curve]. In the case of CCOC(=O)CNc1ncnc2nc[nH]c12, the AC50 is reported as 25.1 µM [falling, partial curve]. With Cc1c(Cl)cccc1NC(=O)C1CCCN(c2ncnc3onc(C)c23)C1 (configuration not stated) the AC50 was 39.8 µM [falling, single point]. For CCCCOc1ccc(NC2=NC3(CCCCC3)N=C(N)N2)cc1, the AC50 was 20 µM [falling, partial curve]. In the case of O=C(NCc1ccccc1Cl)c1ccc2c(c1)N(Cc1ccccc1)C(=O)CS2, the AC50 is reported as 10 µM [falling, partial curve]. With CC1CCN(S(=O)(=O)c2ccc3c(c2)c(=O)c(C(=O)NC(C)c2ccccc2)cn3C)CC1 (configuration not stated) the AC50 was 12.6 µM [falling, partial curve]. For Cc1ccc(Cl)cc1N1CCN(C(=O)c2ccc3c(c2)CCN3S(=O)(=O)c2ccccc2)CC1, the AC50 was 12.6 µM [falling, partial curve]. In the case of Cc1ccc(-c2nnc(Nc3cccc(O)c3)c3ccccc23)cc1S(=O)(=O)NCC1CCCO1 (configuration not stated), the AC50 is reported as 20 µM [falling, partial curve]. With CC(=O)c1cccc(NC(=O)Nc2nnc(N3CCCC3)s2)c1 the AC50 was 31.6 µM [falling, single point]. With CCOC(=O)c1c(C)n(-c2ccccc2)c2ccc(OC(=O)c3cccc(C)c3)cc12 the AC50 was 0.631 µM [rising, full curve]. In the case of COc1cccc(CNC(=O)c2ccc3c(=O)n4nc(Nc5ccccc5)sc4nc3c2)c1, the AC50 is reported as 20 µM [falling, partial curve]. In the case of CCCOc1ccc(CNC(=O)c2ccc(C)c(-n3c(C)nc4cccnc43)c2)cc1, the AC50 is reported as 31.6 µM [falling, single point]. In the case of COc1ccc2cc(-c3nnc(Nc4ccccc4)s3)c(=O)oc2c1, the AC50 is reported as 7.94 µM [falling, partial curve]. For CN(Cc1ccccc1)S(=O)(=O)c1ccc2[nH]c3c(c2c1)CCCCC3, the AC50 was 12.6 µM [falling, partial curve]. In the case of CCN1CCN(C(c2ccc(C)cc2)c2c(O)cc(C)n(Cc3ccco3)c2=O)CC1 (configuration not stated), the AC50 is reported as 3.16 µM [falling, partial curve]. With COc1ccc(-c2cc3nc(C)c(CCC(=O)N4CCN(c5ccc(F)cc5)CC4)c(C)n3n2)c(OC)c1 the AC50 was 0.794 µM [falling, full curve]. With Cc1ccc(Nc2nc3ccccc3c3nnc(C)n23)c(C)c1 the AC50 was 5.01 µM [falling, partial curve]. In the case of Nn1c(SCC(=O)Nc2ccc(Oc3ccccc3)cc2)nnc1C1CC1, the AC50 is reported as 20 µM [falling, single point]. With CCn1c(C(=O)N2CCc3ccccc3C2)cc2sccc21 the AC50 was 1 µM [falling, partial curve]. In the case of CCCCN(CCCC)CCNC(=O)CN1C(=O)CSc2ccc(S(=O)(=O)N3CCOCC3)cc21, the AC50 is reported as 0.00631 µM [rising, full curve, poor fit]. In the case of CC(=O)c1cccc(Nc2cc(C)nc3nc(Cc4ccccc4)nn23)c1, the AC50 is reported as 10 µM [falling, partial curve]. In the case of COc1ccc(NC(=O)c2c(C)oc3ccc(O)c(CN4CCN(Cc5ccccc5)CC4)c23)cc1Cl, the AC50 is reported as 12.6 µM [falling, partial curve].
